According to PubChem BioAssay AID1671190 (National Center for Advancing Translational Sciences (NCATS), 2021):
Hit rate of the full screen: of about 580,000 compounds, about 6,100 (1.1%) were called active. Inconclusive results, whose numbers are uncertain, are shown with a selection of clear calls. The call rests on the fitted dose curve; in most records, active means well fitted inhibition curve with a large enough effect; inconclusive means small, poorly fitted or top-dose-only effect, or another doubt; inactive means no such curve, though single readings can be large or run the other way. A potency beside an inconclusive call is a rough fit, not a confirmed value.

Protein sequences, listed by entry. Tags and fused reporters are not part of them. Lines headed by an entry give the natural chain unless they say otherwise; changes in a name come on top.
UniProt P18054: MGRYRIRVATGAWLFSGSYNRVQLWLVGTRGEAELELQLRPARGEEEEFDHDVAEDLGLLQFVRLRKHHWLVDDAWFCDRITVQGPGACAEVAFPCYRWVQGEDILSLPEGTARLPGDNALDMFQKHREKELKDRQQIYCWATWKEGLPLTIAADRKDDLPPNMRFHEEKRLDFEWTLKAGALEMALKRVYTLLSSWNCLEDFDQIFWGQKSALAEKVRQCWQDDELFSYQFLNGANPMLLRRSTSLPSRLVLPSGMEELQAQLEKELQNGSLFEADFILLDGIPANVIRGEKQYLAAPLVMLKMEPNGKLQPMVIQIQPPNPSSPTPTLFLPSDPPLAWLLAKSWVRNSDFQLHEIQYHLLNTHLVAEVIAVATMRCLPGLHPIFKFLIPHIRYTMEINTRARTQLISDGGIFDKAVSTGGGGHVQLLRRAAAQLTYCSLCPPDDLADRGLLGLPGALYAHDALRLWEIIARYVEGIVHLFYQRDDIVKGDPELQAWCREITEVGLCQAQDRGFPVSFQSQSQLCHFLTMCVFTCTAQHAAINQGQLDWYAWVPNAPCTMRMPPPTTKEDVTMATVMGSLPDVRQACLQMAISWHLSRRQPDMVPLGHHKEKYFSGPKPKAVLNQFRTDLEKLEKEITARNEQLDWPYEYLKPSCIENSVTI

Target: Polyunsaturated fatty acid lipoxygenase ALOX12 (Homo sapiens) (UniProt P18054)
Test: Primary qHTS assay for inhibitors of human arachidonate 12S-lipoxygenase (ALOX12): Round 2
Conditions: purified 12hLO, xylenol orange hydroperoxide absorbance; activity change, negative = inhibition: at 108 µM (top of the series) unless noted
Outline: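 Purified human 12hLO at 150 nM in 25 mM Hepes, 0.01% Triton X-100, pH 7.0, preincubated 15 min at room temperature with compound. Reaction started with 40 uM arachidonic acid, 30 min at room temperature. Hydroperoxide measured by Fe-xylenol orange, 573/405 nm absorbance ratio.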
On the % scale 0 is the no-effect control and ±100 the full control effect; potency means the concentration at half of the fitted maximal effect.

Row | Structure (SMILES) | activity change, negative = inhibition | Potency
1 | O=C(c1ccc(N2CCCCC2)c([N+](=O)[O-])c1)N(Cc1ccccc1)c1ccccn1 | inactive: -22.3% | –
2 | COc1ccc(C2=NOC3(CC(=O)N(c4ccc(F)cc4)C3=O)C2)c(OC)c1 (centres undefined) | – | inconclusive: 56.2 µM [inhibitor, partial curve]
3 | CCOC(=O)C1(CCCc2ccccc2)CCN(Cc2cnn(C)c2)CC1 | inactive: 9.89% | –
4 | O=C(CCCC1C(=O)Nc2ccccc21)NCCc1noc(-c2ccccc2)n1 (centres undefined) | inactive: 6.38% | –
5 | Cc1cc(C)nc(NC(N)=NC(C)c2ccccc2)n1 (centres undefined) | inactive: -23.3% | –
6 | O=C(Cn1c(=O)oc2ccccc21)NC1CCCN(CCCc2ccccc2)C1 (centres undefined) | inactive: 53.5% | –
7 | Cc1nc(-c2ccc(NS(C)(=O)=O)cc2)cs1 | inactive: 0% | –
8 | COc1ccccc1CNc1ncncc1-c1ccccc1Cl | – | inconclusive: 44.7 µM [inhibitor, partial curve, poor fit]
9 | COc1ccc(OC)c2sc(N3CCc4ccccc4C3)nc12 | inactive: -15.7% | –
10 | CC(=O)c1cc2c(cc1NC(=O)Nc1cccc(Cl)c1)OCCO2 | – | inconclusive: 44.7 µM [inhibitor, single point]
11 | Cc1nc(-c2ccccc2)sc1-c1ccc(SCC(=O)Nc2ccc(F)cc2F)nn1 | – | inconclusive: 56.2 µM [inhibitor, partial curve, poor fit]
12 | COc1ccccc1NC(=O)C(=O)c1c[nH]c2ccccc12 | inactive: -6.91% | –
13 | CCC(=O)Nc1sc2c(c1C#N)CCC2 | inactive: -29.2% | –
14 | Cc1cc(NC(=O)CSc2cn(CCNC(=O)c3ccc(Cl)cc3)c3ccccc23)no1 | inactive: 42.4% | –
15 | CC(=O)OCOC(=O)CN(CC(=O)OCOC(C)=O)c1ccccc1OCCOc1ccccc1N(CC(=O)OCOC(C)=O)CC(=O)OCOC(C)=O | inactive: 11.4% [at 57.4 µM] | –
16 | CCc1ccccc1NC(=O)CSc1nc2c(=O)[nH]cnc2n1CC | inactive: -4.33% | –
17 | COc1cc(OC)c2c(c1)OC(=O)CC2c1ccc(C)cc1 (centres undefined) | – | inconclusive: 100 µM [inhibitor, single point]
18 | CCN(CC)CCOc1ccc(/C(=C(\Cl)c2ccccc2)c2ccccc2)cc1 | – | inconclusive: 22.4 µM [inhibitor, partial curve]
19 | Cc1cc(C(=O)NCCc2ccc(Cl)cc2)no1 | inactive: 0% | –
20 | OCCN(CCO)CC(O)COc1ccc2c(c1)OCO2 (centres undefined) | inactive: -12% | –
21 | CC(=O)c1c(N2CCN(c3cccc(Cl)c3)CC2)nc(=S)n(-c2ccccc2)c1C | – | active: 35.5 µM
22 | Cc1ncc(-c2ccc(C)c(S(=O)(=O)Nc3cccc(Cl)c3)c2)o1 | inactive: -18.3% | –
23 | O=C(Cc1ccccc1)NNC(=S)NCc1ccccc1 | inactive: 8.68% | –
24 | CC1=C(c2ccc(C)c(C)c2)S(=O)(=O)N(Cc2ccc(C(=O)NC3CCCC3)cc2)C1=O | – | inconclusive: 89.1 µM [inhibitor, partial curve, poor fit]

Single records, as listed above. Values in the order: activity change, negative = inhibition	Potency
CC(=O)c1c(N2CCN(c3cccc(Cl)c3)CC2)nc(=S)n(-c2ccccc2)c1C is listed as –	active: 35.5 µM
CCC(=O)Nc1sc2c(c1C#N)CCC2 is listed as inactive: -29.2%	–
